PubChem BioAssay AID1671195, Yale University, 2021

- Screen: 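Genes whose knockdown alters LDL uptake in liver cancer cells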 (primary screen)
- System: human Huh7 hepatoma cells
- Knock-down reagent: siRNA pool against human genes, 18 nM
- Time to read-out: about 2 to 2.5 days of knockdown, then 8 h LDL uptake
- Challenge: DiI-labelled LDL at 30 µg/ml for 8 h, in lipoprotein-deficient serum medium
- Detection: 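Fluorescent LDL signal imaged in cells, scaled to the plate median, robust z-score for each replicate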
- Scale: robust z-score: higher = more LDL uptake after knockdown
- Call rule: 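Active when two or more replicates show a robust z-score above 2 or below -2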
In all, the deposit lists about 22,000 reagents; this is an unselected part. About 1,510 of them (6.9%) count as active. 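Active includes knockdowns raising or lowering LDL uptake; positive z-scores mean more uptake, negative mean less.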 No sequences are given here.

With SART1, how do the results read?
robust z-score, replicate 1: 1.15; robust z-score, replicate 2: 0.182; robust z-score, replicate 3: 1.14; call: inactive

How did the screen score PARVA (parvin alpha)?
robust z-score, replicate 1: 0.0185; robust z-score, replicate 2: -0.424; robust z-score, replicate 3: -1.05; call: inactive

Which result is listed for B4GALT3 (beta-1,4-galactosyltransferase 3)?
robust z-score, replicate 1: 0.748; robust z-score, replicate 2: 0.569; robust z-score, replicate 3: 0.18; call: inactive

What did the screen give for UIMC1 (ubiquitin interaction motif containing 1)?
robust z-score, replicate 1: 1.95; robust z-score, replicate 2: 2.89; robust z-score, replicate 3: 2.5; call: active

Which result is listed for LOC441655 (retired record)?
robust z-score, replicate 1: -0.437; robust z-score, replicate 2: -0.522; robust z-score, replicate 3: -0.129; call: inactive

What is on record for HNRNPH2 (heterogeneous nuclear ribonucleoprotein H2)?
robust z-score, replicate 1: 2.17; robust z-score, replicate 2: 1.93; robust z-score, replicate 3: 2.36; call: active

What did the screen give for LOXL3 (lysyl oxidase like 3)?
robust z-score, replicate 1: 0.593; robust z-score, replicate 2: 1.82; robust z-score, replicate 3: 0.861; call: inactive

For UNC5CL (unc-5 family C-terminal like), how do the results read?
robust z-score, replicate 1: 0.219; robust z-score, replicate 2: 0.212; robust z-score, replicate 3: 0.313; call: inactive

What is on record for BTF3P10 (basic transcription factor 3 pseudogene 10)?
robust z-score, replicate 1: 0.637; robust z-score, replicate 2: 0.33; robust z-score, replicate 3: 0.494; call: inactive

With SOX17 (SRY-box transcription factor 17), what was measured?
robust z-score, replicate 1: -0.643; robust z-score, replicate 2: -0.687; robust z-score, replicate 3: -0.564; call: inactive

With SPRYD7 (SPRY domain containing 7), how do the results read?
robust z-score, replicate 1: -0.151; robust z-score, replicate 2: 0.0371; robust z-score, replicate 3: -0.28; call: inactive

What did the screen give for SMIM11 (small integral membrane protein 11)?
robust z-score, replicate 1: -0.94; robust z-score, replicate 2: -1.86; robust z-score, replicate 3: -1.29; call: inactive

What is on record for PLCG2 (phospholipase C gamma 2)?
robust z-score, replicate 1: -0.719; robust z-score, replicate 2: -0.962; robust z-score, replicate 3: -1.31; call: inactive

How did the screen score SBSPON (somatomedin B and thrombospondin type 1 domain containing)?
robust z-score, replicate 1: -0.346; robust z-score, replicate 2: 0.448; robust z-score, replicate 3: -0.554; call: inactive

Which result is listed for UGT1A3 (UDP glucuronosyltransferase family 1 member A3)?
robust z-score, replicate 1: -1.22; robust z-score, replicate 2: -0.886; robust z-score, replicate 3: -0.885; call: inactive

How did the screen score GMPR2 (guanosine monophosphate reductase 2)?
robust z-score, replicate 1: 0.0364; robust z-score, replicate 2: 1.18; robust z-score, replicate 3: 0.447; call: inactive
